One molecule from PMC11170899 can be followed below.

Chains of the proteins cited; added tags and fusions are not shown.
UniProt Q13309: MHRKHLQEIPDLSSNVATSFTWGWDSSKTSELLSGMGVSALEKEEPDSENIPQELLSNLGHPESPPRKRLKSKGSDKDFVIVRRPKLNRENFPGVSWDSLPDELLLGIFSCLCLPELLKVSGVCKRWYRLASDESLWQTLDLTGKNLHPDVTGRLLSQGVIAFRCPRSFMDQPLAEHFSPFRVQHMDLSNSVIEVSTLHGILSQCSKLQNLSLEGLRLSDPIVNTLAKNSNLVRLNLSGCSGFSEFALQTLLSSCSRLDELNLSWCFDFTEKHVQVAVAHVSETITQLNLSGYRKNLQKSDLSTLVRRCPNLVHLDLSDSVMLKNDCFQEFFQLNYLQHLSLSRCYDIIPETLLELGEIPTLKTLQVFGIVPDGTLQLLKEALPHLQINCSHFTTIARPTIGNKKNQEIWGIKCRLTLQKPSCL

The assay has as its target E3 ubiquitin ligase SKP2 (human (in MDA-MB-231 and BT549 cells)) (UniProt Q13309). The assay can be described thus: co-IP; lysate of breast cancer cells (MDA-MB-231 and BT549) incubated with antibody at 4 °C overnight, then beads 2 h at 4 °C; washed 2 times with IP lysate; western blot. (A western blot detects proteins with antibodies after separation by electrophoresis.)

No constants are given. Whether binding was seen depends on the method and setting. In cells and extracts the contact can be indirect. Some results given as binding are weak or reduced against the parent protein; the word gives no strength.

B1: Testicular expression 19 (TEX19) (protein, UniProt Q8NA77 1-164)
chain: MCPPVSMRYEEEGMSYLYASWMYQLQHGDQLSICFTCFKAAFLDFKDLLESEDWEEDNWDPELMEHTEAESEQEGSSGMELSWGQSPGQPVQGGSEAWGPGTLAAAPEGLEDAGLDPHFVPTELWPQEAVPLGLGLEDADWTQGLPWRFEELLTCSHWPSFFPS
Consider B1, for which the binding result was “binds”.
